The assay concerns the target T1, Ste4-GFP (endogenous) (S. pombe (endogenous in mating cells)) (UniProt P36622).
T1 sequence: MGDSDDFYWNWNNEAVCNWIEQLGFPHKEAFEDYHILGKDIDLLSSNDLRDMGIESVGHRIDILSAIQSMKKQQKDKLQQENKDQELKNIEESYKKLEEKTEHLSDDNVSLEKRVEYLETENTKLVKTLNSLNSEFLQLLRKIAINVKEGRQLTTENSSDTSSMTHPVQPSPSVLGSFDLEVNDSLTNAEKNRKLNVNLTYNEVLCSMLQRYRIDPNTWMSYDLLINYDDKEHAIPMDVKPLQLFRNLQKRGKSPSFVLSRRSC
As to the kind of experiment: affinity purification with mass spectrometry.

Results are given in words; binding and its absence hold for the method and conditions named. Binding seen in cells or lysates may run through a third protein. Here binding means that the protein was enriched with, or labelled near, the bait; the list need not be complete. Where a sequence is shown, tags or fusion partners need not be part of it.

Here are results for two molecules from paper doi:10.1101/2025.09.24.678297.

For “Sms1 (SPAC23E2.03c, endogenous) (S. pombe (endogenous in mating cells))”, the binding entry is “binds”.

B1: MAP3K^Byr2 (endogenous) (enzyme, UniProt P28829 1-659)
chain: MEYYTSKEVAEWLKSIGLEKYIEQFSQNNIEGRHLNHLTLPLLKDLGIENTAKGKQFLKQRDYLREFPRPCILRFIACNGQTRAVQSRGDYQKTLAIALKKFSLEDASKFIVCVSQSSRIKLITEEEFKQICFNSSSPERDRLIIVPKEKPCPSFEDLRRSWEIELAQPAALSSQSSLSPKLSSVLPTSTQKRSVRSNNAKPFESYQRPPSELINSRISDFFPDHQPKLLEKTISNSLRRNLSIRTSQGHNLGNFGQEILPRSSRRARPSELVCPLSSLRISVAEDVNRLPRIDRGFDPPLTVSSTQRISRPPSLQKSITMVGVEPLYQSNGNEKSSKYNVFSESAHGNHQVLSFSPGSSPSFIEQPSPISPTSTTSEDTNTLEEDTDDQSIKWIRGALIGSGSFGQVYLGMNASSGELMAVKQVILDSVSESKDRHAKLLDALAGEIALLQELSHEHIVQYLGSNLNSDHLNIFLEYVPGGSVAGLLTMYGSFEETLVKNFIKQTLKGLEYLHSRGIVHRDIKGANILVDNKGKIKISDFGISKKLELNSTSTKTGGARPSFQGSSFWMAPEVVKQTMHTEKTDIWSLGCLVIEMLTSKHPYPNCDQMQAIFRIGENILPEFPSNISSSAIDFLEKTFAIDCNLRPTASELLSHPFVS
As for B1, the binding entry is “binds”.
